The whole screen tested about 400,000 compounds, of which about 13,000 (3.2%) were called active. Inconclusive means that the source gave no clear call. Such entries were picked first, then a sample of the others. Calls follow the shape of the dose curve; as a rule, active = well fitted cell-killing curve with a large enough effect; inconclusive = small, poorly fitted or top-dose-only effect, or effect the other way; inactive = flat fitted curve, though single readings scatter. A potency beside an inconclusive call is a rough fit, not a confirmed value.
Assay: qHTS assay for MDR1-selective chemotherapeutics: Primary screen using the drug-selected MDR subline cells KB-V1; also: nearly all actives have a fitted effect of over 60% in size
Settings: KB-V1 MDR cells viability, CellTiter-Glo, 72 h; series mostly up to 46.1 µM
Method in brief: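 In this primary screen, KB-V1 cells overexpressing P-gp are incubated with library compounds (lowest to highest concentration) for 72 h at 37 degrees C before a luminescent ATP viability read.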
Potency is read from the fitted curve at half-maximal effect.

SMILES | Potency
CC1(C2CC2)NC(=O)N(CC(=O)Nc2ccc(Cl)c([N+](=O)[O-])c2)C1=O (stereo unspecified) | inactive
Cn1c(=O)c2c(nc(NCc3ccco3)n2CC(O)COc2ccccc2)n(C)c1=O (stereo unspecified) | active: 2.59 µM
CC(=O)c1ccc(OC(C)c2nc3ccccc3s2)cc1 (stereo unspecified) | inactive
CSc1ccccc1OCc1cc(C(=O)NCC(C)Oc2cccnc2)no1 (stereo unspecified) | inconclusive: 16.4 µM [cytotoxic, partial curve]
CCOc1ccc(C(=O)CC(Sc2ccc(C)cc2)C(=O)O)cc1 (stereo unspecified) | inactive
O=C(NCc1ccco1)c1ccc([N+](=O)[O-])o1 | inconclusive: 29.1 µM [cytotoxic, single point]
N/C(Cc1ccc(Cl)cc1)=N\OC(=O)c1cccc2ccccc12 | inactive
O=C(O)CC(c1ccc(OC2CCCC2)cc1)N1C(=O)c2ccccc2C1=O (stereo unspecified) | inconclusive: 20.6 µM [rising, single point]
CCCCC(=O)Nc1nnc(-c2ccco2)o1 | inactive
CSc1ccc(S(=O)(=O)N2CCC(C(=O)Nc3ccccc3C(F)(F)F)CC2)cc1 | inconclusive: 13 µM [cytotoxic, partial curve]
Cc1noc2nc(C(=O)O)nc(N3CCCCC3)c12 | inactive
COCCCN1C(=O)c2ccc(C(=O)NCc3ccccn3)cc2C1=O | inconclusive: 29.1 µM [rising, single point]
NNC(=O)c1ccc(COc2ccc3ccccc3c2)cc1 | inconclusive: 18.4 µM [cytotoxic, single point]
CCOC(=O)Cc1csc(NS(=O)(=O)c2cccc([N+](=O)[O-])c2)n1 | inconclusive: 16.4 µM [rising, single point]
CC1=C(C(=O)N(C)C)CC(CC(=O)NC2CCCCC2)C(=O)N1Cc1ccccc1 (stereo unspecified) | inactive
CCC(C)(C)n1nnnc1CN1CCN(c2nc3cc(OC)ccc3cc2C#N)CC1 | inactive
COCc1c(C(=O)NC2CCCCC2)sc2cccc(F)c12 | inconclusive: 29.1 µM [cytotoxic, single point]
COc1ccccc1N1CCN(CC(=O)Nc2cccc(F)c2)CC1 | inconclusive: 18.4 µM [cytotoxic, partial curve]
COc1ccc(C(=O)N2CCOC2CNC(=O)C(=O)NCCc2ccccc2OC)cc1 (stereo unspecified) | inconclusive: 16.4 µM [cytotoxic, partial curve, poor fit]
COc1ccc(CCN2C(=O)c3ccccc3C2c2nnnn2-c2c(C)cccc2C)cc1OC (stereo unspecified) | inconclusive: 8.2 µM [cytotoxic, partial curve]
Cc1ccc(N/C=C2/Sc3ccccc3NC2=O)cc1 | inconclusive: 29.1 µM [rising, single point]
O=C(CCN1CCN(c2ccccc2)CC1)Nc1ccc(OCc2ccccc2)cc1 | inactive
N#Cc1ccccc1CSc1ccc(-c2nc3ccccc3[nH]2)cn1 | inconclusive: 18.4 µM [cytotoxic, single point]
COc1ccc(CNC(=O)CN(C(=O)c2snc(C(N)=O)c2N)c2ccc(F)cc2)cc1 | inconclusive: 8.2 µM [cytotoxic, partial curve]

SMILES | Potency
Cc1oc(-c2cccs2)nc1CNC[C@H]1O[C@@H](n2cnc3c(N)ncnc32)[C@H](O)[C@@H]1O | inactive
CCOCCNC(=O)c1ccccc1C(=O)NCCOCC | inactive
C=CCn1c(SCc2ccccc2)nc2scc(-c3ccc(C)o3)c2c1=O | inconclusive: 18.4 µM [cytotoxic, single point]
O=C(c1cc(-c2ccco2)nc2ccccc12)N1CCN(Cc2ccccc2)CC1 | inactive
CCCCCCn1c(=O)n2n(c1=O)[C@@H]1CN(S(=O)(=O)c3ccc(C)cc3)C[C@]1(O)[C@@H](OC(=O)NCc1ccccc1F)C2 | inconclusive: 29.1 µM [cytotoxic, single point]
CN(C)Cc1c(C(=O)N/N=C/c2ccncc2)nnn1-c1nonc1N | inconclusive: 29.1 µM [rising, single point]
CCOCC(=O)Nc1cc(Cl)ccc1C | inactive
Cc1cc(C(=O)COC(=O)c2ccc(O)cc2O)c(C)n1-c1ccc(OC(F)F)cc1 | inconclusive: 9.2 µM [cytotoxic, partial curve]
Cc1cc(S(=O)(=O)N2CCC3(CC2)OCCO3)c(C)cc1Cl | inconclusive: 29.1 µM [cytotoxic, single point]
COC(=O)c1c(NC(=O)/C=C/C(=O)O)sc(C)c1-c1ccc(C)cc1 | inconclusive: 14.6 µM [cytotoxic, partial curve]
CCC1=C(c2cc(OC)c(OC)c(OC)c2)C2(CCCC2)C(=O)O1 | inactive
S=C(NCCSCc1ccccc1Cl)Nc1ccccc1 | inconclusive: 29.1 µM [cytotoxic, single point]
COc1ccc(-c2oc3cc(O)c(OC)c(O)c3c(=O)c2OC)cc1 | inconclusive: 23.1 µM [cytotoxic, partial curve, poor fit]
O=C(Nc1ccc(Br)cn1)c1ccc2nccnc2c1 | active: 16.4 µM
COC(=O)Cc1c(C)c2ccc(OCC(=O)N(C)C3CCS(=O)(=O)C3)cc2oc1=O (stereo unspecified) | inconclusive: 29.1 µM [rising, partial curve, poor fit]
CCCCN(CC)C(=O)Nc1ccc2c(c1)N(C)C(=O)c1ccccc1S2 | inactive
CN1CCN(c2ccc(CNS(=O)(=O)c3ccc(F)cc3Cl)cc2)CC1 | inactive
COc1ccc(N(CC(=O)NCCSc2ccccn2)S(=O)(=O)c2ccc(C)cc2)cc1OC | inconclusive: 29.1 µM [rising, single point]
O=C(O)COc1ccccc1/C=N/NC(=O)CNC(=O)c1ccco1 | inconclusive: 7.31 µM [rising, partial curve]
O=C(NC1CCN(CC(=O)N(c2ccccc2)c2ccccc2)CC1)c1ccc([N+](=O)[O-])cc1 | inconclusive: 29.1 µM [cytotoxic, single point]
COc1ccc(CC(=O)N2CCN(c3ccccc3F)CC2)cc1OC | inconclusive: 25.9 µM [cytotoxic, single point]
Cc1ccc(OCC(=O)NCCCNC(=O)c2ccncc2)cc1 | inactive
CCOC(=O)c1c(NC(=O)COC(=O)c2ccccn2)sc(C)c1C | inconclusive: 18.4 µM [rising, single point]
COc1cccc(NC(=O)CSc2nnc(Cc3cccs3)n2-c2ccc(C)cc2)c1 | active: 8.2 µM

SMILES | Potency
COc1cc(/C=N\NC(=O)CNC(=O)C2COc3ccccc3O2)ccc1O (stereo unspecified) | inactive
CCN1CCN(c2cc(C)c3cc(NC(=O)c4ccc(Br)o4)ccc3n2)CC1 | inconclusive: 29.1 µM [cytotoxic, single point]
CCOC(=O)c1nnn2c1nc(N1CCOCC1)c1ccccc12 | inconclusive: 32.6 µM [cytotoxic, single point]
CCC(C)(C)n1nnnc1C(c1ccccc1OC)N1CCSCC1 (stereo unspecified) | inconclusive: 11.6 µM [cytotoxic, partial curve]
Cc1ccc(/C=C/C(=O)OCC(=O)N(C)c2c(N)n(Cc3ccccc3)c(=O)[nH]c2=O)o1 | inactive
Cc1cccc(/C=N\NC(=O)c2csnn2)c1 | inconclusive: 18.4 µM [rising, partial curve, poor fit]
COc1cc(OC)cc(C2=Cc3ccccc3C(CC(=O)c3ccco3)N2c2ccc(-c3cccnc3)cc2)c1 (stereo unspecified) | inactive
O=C1C2CCCN2C(=O)N1CCCN1CCN(c2cccc(Br)c2)CC1 (stereo unspecified) | inactive
CC(C)(C)C(=O)NNC(=O)c1cc(C(C)(C)C)nn1Cc1ccccc1 | inactive
Cc1nc2ccccn2c1P(=O)(N1CCCCC1)N1CCCCC1 | inconclusive: 18.4 µM [cytotoxic, partial curve]
C[C@H](CO)N1C[C@H](C)[C@@H](CN(C)C(=O)Nc2ccc(C(F)(F)F)cc2)Oc2c(NC(=O)Nc3ccc(C(F)(F)F)cc3)cccc2C1=O | inconclusive: 29.1 µM [cytotoxic, single point]
CCOC(=O)c1c(C)[nH]c(C(=O)Cn2nnc(-c3ccccc3)n2)c1C | inconclusive: 16.4 µM [cytotoxic, single point]
Cc1ccccc1S(=O)(=O)N1[C@@H](c2ccc(Cl)cc2)C(C(=O)O)=CC[C@H]1c1ccc(Cl)cc1 | inactive
CCOc1ccc(S(=O)(=O)NCc2ccncc2)cc1 | active: 0.651 µM
COc1ccc(NC(=O)C2CCN(S(=O)(=O)c3ccc4[nH]c(=O)oc4c3)CC2)c(OC)c1 | inconclusive: 5.8 µM [rising, full curve, poor fit]
O=C(Nc1c(C(=O)N2CCCC2)cnn1-c1ccccc1)c1cccc(F)c1 | inconclusive: 1.3 µM [cytotoxic, full curve]
CCC(COC)Oc1cc(NCc2ccccc2)c2ncn(C(C)C)c2c1 (stereo unspecified) | inactive
C/C(=N\N=C\c1ccccc1F)c1nnn(-c2nonc2N)c1C | inconclusive: 29.1 µM [cytotoxic, single point]
Cc1cc(C)nc(NC(=NCCc2c[nH]c3ccccc23)NC(=O)c2ccco2)n1 | inconclusive: 29.1 µM [cytotoxic, single point]
O=C(CN1C(=O)COc2ccc(Cl)cc21)Nc1ccc(N2CCOCC2)cc1 | inconclusive: 29.1 µM [cytotoxic, single point]
Fc1ccc(-n2cc(-c3ccccc3)c3c(N4CCOCC4)ncnc32)cc1 | inconclusive: 29.1 µM [cytotoxic, single point]
Cc1ccccc1-c1cc(=O)c2ccccc2o1 | inconclusive: 29.1 µM [cytotoxic, single point]
C[C@@H]1[C@H]2[C@@H]3CC[C@@H](C3)[C@H]2CN[C@H]1c1cn(Cc2ccccc2)c2ccccc12 | inactive

Reference: PubChem BioAssay AID1347076 (National Center for Advancing Translational Sciences (NCATS), 2019)
